Results: the supplement of paper PMC10849652
The other results are listed elsewhere or left out. Residues, ends and D or L forms follow the SMILES beside them. *: point of attachment. Cbz = O=C(OCc1ccccc1)*

The chains behind the UniProt entries cited, without tags or fusion partners. Where a name states a change or a piece, a line headed by the entry shows the natural chain unless it says otherwise.
UniProt P05062: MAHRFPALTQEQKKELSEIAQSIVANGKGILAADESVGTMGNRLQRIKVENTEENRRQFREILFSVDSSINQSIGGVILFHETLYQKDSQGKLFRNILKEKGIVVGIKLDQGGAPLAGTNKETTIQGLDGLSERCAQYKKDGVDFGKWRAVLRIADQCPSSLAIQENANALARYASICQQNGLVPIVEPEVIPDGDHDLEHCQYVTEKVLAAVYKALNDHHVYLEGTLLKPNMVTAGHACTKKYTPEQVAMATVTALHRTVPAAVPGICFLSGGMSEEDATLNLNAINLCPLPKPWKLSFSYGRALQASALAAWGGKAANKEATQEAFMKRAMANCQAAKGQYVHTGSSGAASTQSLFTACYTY
UniProt Q9NP73: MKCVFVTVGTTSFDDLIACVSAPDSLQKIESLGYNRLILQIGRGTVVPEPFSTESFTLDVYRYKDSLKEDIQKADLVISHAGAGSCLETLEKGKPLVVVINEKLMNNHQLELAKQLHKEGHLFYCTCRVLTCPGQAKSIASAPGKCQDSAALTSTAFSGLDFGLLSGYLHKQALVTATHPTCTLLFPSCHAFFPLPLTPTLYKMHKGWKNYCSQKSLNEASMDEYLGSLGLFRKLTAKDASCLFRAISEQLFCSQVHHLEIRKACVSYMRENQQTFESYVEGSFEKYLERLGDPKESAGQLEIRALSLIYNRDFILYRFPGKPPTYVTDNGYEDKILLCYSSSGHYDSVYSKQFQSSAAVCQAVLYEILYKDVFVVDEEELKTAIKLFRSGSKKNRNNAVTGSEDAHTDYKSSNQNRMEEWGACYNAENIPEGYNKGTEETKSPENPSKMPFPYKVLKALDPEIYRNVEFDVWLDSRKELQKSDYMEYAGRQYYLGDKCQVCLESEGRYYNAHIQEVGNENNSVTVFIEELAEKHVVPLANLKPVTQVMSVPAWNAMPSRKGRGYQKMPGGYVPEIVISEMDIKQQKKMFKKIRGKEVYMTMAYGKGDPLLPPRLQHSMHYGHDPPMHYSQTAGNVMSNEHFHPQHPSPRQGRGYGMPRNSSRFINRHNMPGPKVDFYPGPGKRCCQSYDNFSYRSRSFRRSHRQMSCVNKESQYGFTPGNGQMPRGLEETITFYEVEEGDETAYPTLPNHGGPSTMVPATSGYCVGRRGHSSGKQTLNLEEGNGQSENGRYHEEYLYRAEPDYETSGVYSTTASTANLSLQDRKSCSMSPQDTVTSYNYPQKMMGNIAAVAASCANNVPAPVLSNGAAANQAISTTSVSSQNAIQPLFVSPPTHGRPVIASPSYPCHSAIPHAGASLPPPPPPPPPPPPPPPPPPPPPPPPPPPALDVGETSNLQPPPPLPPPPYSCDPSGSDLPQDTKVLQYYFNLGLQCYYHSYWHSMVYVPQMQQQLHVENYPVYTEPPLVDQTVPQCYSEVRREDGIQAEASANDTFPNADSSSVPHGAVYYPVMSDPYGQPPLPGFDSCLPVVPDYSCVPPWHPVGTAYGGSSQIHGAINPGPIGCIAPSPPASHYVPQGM
UniProt O75891: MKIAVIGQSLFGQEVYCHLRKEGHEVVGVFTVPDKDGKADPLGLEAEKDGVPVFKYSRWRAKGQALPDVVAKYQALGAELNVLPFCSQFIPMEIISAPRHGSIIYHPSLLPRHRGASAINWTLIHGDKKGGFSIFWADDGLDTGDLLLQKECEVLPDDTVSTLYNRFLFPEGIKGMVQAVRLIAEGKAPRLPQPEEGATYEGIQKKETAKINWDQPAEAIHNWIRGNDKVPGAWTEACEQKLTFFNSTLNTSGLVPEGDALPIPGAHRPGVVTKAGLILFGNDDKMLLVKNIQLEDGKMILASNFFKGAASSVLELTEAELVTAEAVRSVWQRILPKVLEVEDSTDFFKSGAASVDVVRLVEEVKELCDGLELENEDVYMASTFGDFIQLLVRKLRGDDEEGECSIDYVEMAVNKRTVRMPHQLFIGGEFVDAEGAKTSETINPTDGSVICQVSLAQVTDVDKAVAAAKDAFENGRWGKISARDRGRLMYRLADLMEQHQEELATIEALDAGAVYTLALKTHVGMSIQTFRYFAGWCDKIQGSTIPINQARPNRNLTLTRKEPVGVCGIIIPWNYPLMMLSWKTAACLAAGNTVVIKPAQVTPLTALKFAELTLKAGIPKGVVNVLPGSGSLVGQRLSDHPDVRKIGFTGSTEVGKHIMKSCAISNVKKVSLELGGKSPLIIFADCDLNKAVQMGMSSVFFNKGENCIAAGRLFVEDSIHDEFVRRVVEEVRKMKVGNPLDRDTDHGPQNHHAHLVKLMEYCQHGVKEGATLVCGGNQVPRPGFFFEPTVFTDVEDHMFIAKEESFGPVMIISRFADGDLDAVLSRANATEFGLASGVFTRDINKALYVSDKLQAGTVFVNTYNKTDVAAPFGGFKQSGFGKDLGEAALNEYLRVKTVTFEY
UniProt Q04828: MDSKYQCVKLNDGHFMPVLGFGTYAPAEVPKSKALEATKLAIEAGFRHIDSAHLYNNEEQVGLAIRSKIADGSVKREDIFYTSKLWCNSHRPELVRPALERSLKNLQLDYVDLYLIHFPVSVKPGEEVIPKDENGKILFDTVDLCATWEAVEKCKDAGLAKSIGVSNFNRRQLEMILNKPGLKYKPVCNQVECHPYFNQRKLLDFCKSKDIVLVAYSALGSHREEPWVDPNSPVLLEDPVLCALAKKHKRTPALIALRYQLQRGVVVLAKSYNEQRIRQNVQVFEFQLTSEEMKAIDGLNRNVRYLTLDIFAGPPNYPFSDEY
UniProt P13196: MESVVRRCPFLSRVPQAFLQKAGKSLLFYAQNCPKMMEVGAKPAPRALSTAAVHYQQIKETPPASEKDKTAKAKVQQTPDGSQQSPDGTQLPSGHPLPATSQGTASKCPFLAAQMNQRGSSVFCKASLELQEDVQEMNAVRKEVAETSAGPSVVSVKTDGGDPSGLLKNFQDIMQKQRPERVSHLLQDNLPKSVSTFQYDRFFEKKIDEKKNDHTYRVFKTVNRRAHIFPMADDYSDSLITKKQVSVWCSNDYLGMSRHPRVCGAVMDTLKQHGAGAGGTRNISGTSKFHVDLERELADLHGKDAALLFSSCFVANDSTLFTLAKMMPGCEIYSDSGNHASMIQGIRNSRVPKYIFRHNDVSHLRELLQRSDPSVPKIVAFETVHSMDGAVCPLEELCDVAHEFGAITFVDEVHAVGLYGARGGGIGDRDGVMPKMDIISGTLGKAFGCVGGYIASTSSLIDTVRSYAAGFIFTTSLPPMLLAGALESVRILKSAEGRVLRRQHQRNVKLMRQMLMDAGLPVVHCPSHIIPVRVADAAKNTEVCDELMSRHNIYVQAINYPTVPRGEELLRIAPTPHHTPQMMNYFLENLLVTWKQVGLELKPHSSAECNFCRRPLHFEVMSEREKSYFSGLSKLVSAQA
UniProt Q3LIE5: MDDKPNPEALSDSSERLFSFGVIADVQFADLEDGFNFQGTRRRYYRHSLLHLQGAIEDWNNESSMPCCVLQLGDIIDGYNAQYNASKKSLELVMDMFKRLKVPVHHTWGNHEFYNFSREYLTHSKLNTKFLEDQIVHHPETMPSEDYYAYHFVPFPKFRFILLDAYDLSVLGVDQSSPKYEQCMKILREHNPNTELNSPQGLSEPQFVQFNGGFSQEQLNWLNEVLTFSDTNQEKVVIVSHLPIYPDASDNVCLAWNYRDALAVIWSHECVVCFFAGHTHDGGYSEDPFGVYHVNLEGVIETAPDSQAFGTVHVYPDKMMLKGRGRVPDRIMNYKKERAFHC
UniProt Q9NYG5, whole entry, looked up: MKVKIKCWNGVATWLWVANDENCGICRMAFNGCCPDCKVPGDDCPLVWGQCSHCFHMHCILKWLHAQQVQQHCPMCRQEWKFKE
UniProt Q96Q42: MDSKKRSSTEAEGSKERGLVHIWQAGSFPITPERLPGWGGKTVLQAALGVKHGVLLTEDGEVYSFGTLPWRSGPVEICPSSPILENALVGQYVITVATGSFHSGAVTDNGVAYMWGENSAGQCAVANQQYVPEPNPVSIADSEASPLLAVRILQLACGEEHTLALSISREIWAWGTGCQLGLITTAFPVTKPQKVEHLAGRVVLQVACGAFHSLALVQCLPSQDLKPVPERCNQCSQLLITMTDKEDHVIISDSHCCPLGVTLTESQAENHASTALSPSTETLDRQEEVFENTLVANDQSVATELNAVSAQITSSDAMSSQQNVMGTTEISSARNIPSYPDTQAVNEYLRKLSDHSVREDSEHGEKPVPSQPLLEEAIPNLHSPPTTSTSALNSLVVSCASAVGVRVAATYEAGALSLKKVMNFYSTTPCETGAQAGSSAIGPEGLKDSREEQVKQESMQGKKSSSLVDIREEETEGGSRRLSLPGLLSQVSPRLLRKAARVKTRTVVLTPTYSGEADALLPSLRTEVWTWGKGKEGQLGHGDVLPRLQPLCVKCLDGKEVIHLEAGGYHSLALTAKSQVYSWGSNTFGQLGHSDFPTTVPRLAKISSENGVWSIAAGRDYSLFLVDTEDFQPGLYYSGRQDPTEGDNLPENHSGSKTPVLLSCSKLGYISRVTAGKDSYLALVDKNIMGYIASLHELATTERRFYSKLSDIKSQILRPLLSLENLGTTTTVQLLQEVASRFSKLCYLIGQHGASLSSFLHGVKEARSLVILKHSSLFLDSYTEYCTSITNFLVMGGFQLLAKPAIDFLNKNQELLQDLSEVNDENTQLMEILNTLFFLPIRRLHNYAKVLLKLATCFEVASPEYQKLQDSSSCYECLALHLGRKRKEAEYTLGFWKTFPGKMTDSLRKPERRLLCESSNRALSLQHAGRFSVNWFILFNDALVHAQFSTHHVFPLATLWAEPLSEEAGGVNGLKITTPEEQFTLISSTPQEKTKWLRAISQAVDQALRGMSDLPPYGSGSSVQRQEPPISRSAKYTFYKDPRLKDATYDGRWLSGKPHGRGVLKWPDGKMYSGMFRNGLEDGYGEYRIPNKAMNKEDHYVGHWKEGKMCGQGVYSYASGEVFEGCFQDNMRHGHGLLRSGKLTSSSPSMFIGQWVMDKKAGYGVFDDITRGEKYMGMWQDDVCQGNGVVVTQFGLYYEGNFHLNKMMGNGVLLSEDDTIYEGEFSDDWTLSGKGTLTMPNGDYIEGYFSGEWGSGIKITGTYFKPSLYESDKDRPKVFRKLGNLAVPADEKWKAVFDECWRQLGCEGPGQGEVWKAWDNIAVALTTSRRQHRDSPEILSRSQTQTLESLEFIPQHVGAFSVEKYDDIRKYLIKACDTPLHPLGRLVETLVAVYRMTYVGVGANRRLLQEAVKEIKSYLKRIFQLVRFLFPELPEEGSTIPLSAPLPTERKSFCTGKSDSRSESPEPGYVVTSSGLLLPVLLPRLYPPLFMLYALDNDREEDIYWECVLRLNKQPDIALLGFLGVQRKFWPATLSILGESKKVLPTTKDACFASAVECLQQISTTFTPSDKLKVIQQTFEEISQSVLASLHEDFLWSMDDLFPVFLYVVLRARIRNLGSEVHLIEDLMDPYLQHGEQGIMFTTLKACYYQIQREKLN
UniProt Q86V24: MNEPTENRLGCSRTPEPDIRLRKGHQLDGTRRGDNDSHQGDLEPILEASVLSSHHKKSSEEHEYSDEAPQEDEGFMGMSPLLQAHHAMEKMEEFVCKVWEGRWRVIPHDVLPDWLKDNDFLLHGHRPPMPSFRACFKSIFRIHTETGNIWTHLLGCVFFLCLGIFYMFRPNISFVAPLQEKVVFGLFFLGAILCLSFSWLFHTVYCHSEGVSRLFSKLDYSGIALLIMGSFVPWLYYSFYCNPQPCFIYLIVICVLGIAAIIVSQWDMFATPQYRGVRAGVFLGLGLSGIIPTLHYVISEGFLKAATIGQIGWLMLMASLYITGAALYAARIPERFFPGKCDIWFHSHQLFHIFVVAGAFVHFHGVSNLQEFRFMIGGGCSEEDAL
UniProt P35612: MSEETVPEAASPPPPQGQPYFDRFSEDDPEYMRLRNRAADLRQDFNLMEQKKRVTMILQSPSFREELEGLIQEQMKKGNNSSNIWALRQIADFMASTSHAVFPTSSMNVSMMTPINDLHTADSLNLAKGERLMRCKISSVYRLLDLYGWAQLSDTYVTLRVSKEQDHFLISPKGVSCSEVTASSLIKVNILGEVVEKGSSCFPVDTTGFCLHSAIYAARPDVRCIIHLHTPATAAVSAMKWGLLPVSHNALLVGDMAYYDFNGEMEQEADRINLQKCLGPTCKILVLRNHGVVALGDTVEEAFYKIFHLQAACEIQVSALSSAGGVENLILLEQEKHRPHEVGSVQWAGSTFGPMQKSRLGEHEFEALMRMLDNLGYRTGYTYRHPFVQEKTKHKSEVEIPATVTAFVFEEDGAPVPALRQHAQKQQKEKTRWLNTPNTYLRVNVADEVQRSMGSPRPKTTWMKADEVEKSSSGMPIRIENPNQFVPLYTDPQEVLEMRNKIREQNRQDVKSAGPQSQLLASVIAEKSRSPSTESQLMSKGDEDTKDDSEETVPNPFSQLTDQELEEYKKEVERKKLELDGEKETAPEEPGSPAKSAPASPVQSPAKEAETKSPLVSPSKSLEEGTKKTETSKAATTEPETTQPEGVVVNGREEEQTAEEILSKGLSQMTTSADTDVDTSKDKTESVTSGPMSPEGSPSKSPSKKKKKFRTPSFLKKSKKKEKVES

Legend:
Assay in all cases: log2 fold change, soluble protein after heating vs DMSO (PISA); higher = thermal stabilisation; K562 cells, 10 uM, 30 min; active = over 0.2 and 3.5 SD of the protein, either way, in both replicates (recomputed)
ibrutinib = compound: C=CC(=O)N1CCC[C@@H](n2nc(-c3ccc(Oc4ccccc4)cc3)c3c(N)ncnc32)C1 [ibrutinib]
In short: (§1)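 K562 cells at 2×10^6 cells/mL were exposed to 10 μM compound for 30 min, then aliquots were heated for 3 min across 48°C-58°C, pooled, and extracted in PBS containing 0.5% NP-40 at 4°C. The supernatant after 21,000xg for 90 min was taken as soluble protein and measured by TMTpro 16plex LC-MS/MS with channel sums equalised. Thermal stability is reported relative to control samples, with values from duplicates. Fold changes are given on a log2 scale.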

barasertib = compound: CCN(CCCOc1ccc2c(Nc3cc(CC(=O)Nc4cccc(F)c4)[nH]n3)ncnc2c1)CCOP(=O)(O)O [barasertib]
In short: as §1

ralimetinib = compound: CC(C)(C)Cn1c(N)nc2ccc(-c3[nH]c(C(C)(C)C)nc3-c3ccc(F)cc3)nc21 [ralimetinib]
In short: as §1

[1] = compound: CC(C)C1=C2N=C(C=C(N2N=C1)NCC3=CC=CC=C3)NCCCCCCN
In short: as §1

[2] = compound: CC(C)C[C@@H](C=O)NC(=O)[C@H](CC(C)C)NC(=O)[C@H](CC(C)C)NC(=O)OCc1ccccc1
In short: as §1

[3] = compound: CC1=C(C(CC(=O)N1)C2=CC=C(C=C2)C(F)(F)F)C(=O)NC3=C(C=C4C(=C3)C=NN4)F
In short: as §1

[4] = compound: CC1=C(C=C(C=C1)NC(=O)C2=CC(=CC=C2)N(C)C)NC(=O)C3=CC=C(C=C3)O
In short: as §1

[5] = compound: CCCc1cc(C)[nH]c(=O)c1CNC(=O)c1cc(-c2ccnc(N3CCN(C)CC3)c2)cc2c1cnn2C(C)C
In short: as §1

givinostat = compound: CCN(CC)Cc1ccc2cc(COC(=O)Nc3ccc(C(=O)NO)cc3)ccc2c1 [givinostat]
In short: as §1

[6] = compound: CC(=O)c1cnc2ccc(-c3cc(Cl)c(O)c(Cl)c3)nc2c1N[C@H]1CC[C@H](CN(C)C)CC1
In short: as §1

[7] = compound: CC(C)(O)CC(=O)NCCn1ccc2ncnc(Nc3ccc(Oc4cccc(C(F)(F)F)c4)c(Cl)c3)c21
In short: as §1

[8] = compound: CC1=C(C2=C(C=C1)C(=O)C3=CC=CC=C3N2CCCN)C
In short: as §1

[9] = compound: CC1=C(C=C(C=C1)NC(=O)C2=CC(=CC=C2)C(C)(C)C#N)NC3=CC4=C(C=C3)N=CN(C4=O)C
In short: as §1

[10] = compound: CC1=CC=C(C=C1)SC2=C3C=C(SC3=CN=C2)C(=O)N
In short: as §1

Nexturastat A = compound: CCCCN(Cc1ccc(C(=O)NO)cc1)C(=O)Nc1ccccc1 [Nexturastat A]
In short: as §1

vemurafenib = compound: CCCS(=O)(=O)Nc1ccc(F)c(C(=O)c2c[nH]c3ncc(-c4ccc(Cl)cc4)cc23)c1F [vemurafenib]
In short: as §1

[11] = compound: CCCS(=O)(=O)Nc1ccc(F)c(C(=O)c2c[nH]c3ncc(Cl)cc23)c1F
In short: as §1

Measured: log2 fold change

AMOTL1 (UniProt Q8IY63)
inactive: ibrutinib -0.074 | barasertib -0.119

AHSP (UniProt Q9NZD4)
inactive: ralimetinib 0.232 | [1] 0.098 | [2] -0.185 | [3] -0.024 | [4] 0.101 | [5] 0.181 | givinostat -0.172

AMN1 (UniProt Q8IY45)
inactive: ibrutinib -0.012 | [6] -0.163 | [7] -0.09 | [1] 0.022 | [3] -0.082 | [8] -0.008 | [9] -0.051 | [10] -0.066 | Nexturastat A -0.084 | vemurafenib 0.084 | [11] 0.076 | [5] 0 | givinostat -0.172 | barasertib -0.011

AGGF1 (UniProt Q8N302)
inactive: ibrutinib 0.065 | [1] 0.097 | [5] 0.097 | givinostat 0.184 | barasertib 0.147

2 neighbouring entries out of the list so far, quoted:
AMN1 (UniProt Q8IY45)
inactive: ibrutinib -0.012 | [6] -0.163 | [7] -0.09 | [1] 0.022 | [3] -0.082 | [8] -0.008 | [9] -0.051 | [10] -0.066 | Nexturastat A -0.084 | vemurafenib 0.084 | [11] 0.076 | [5] 0 | givinostat -0.172 | barasertib -0.011

AGGF1 (UniProt Q8N302)
inactive: ibrutinib 0.065 | [1] 0.097 | [5] 0.097 | givinostat 0.184 | barasertib 0.147

(listing goes on)

ALDOB (UniProt P05062)
inactive: [7] 0.002 | [9] 0.053 | Nexturastat A -0.062

AKTIP isoform 2 (UniProt Q9H8T0)
inactive: ibrutinib -0.001 | [7] 0.027 | [9] 0.054 | [10] 0.068 | Nexturastat A 0.103 | [11] 0.075 | [5] -0.099 | barasertib 0.389

ALG13 isoform 2 (UniProt Q9NP73)
inactive: ibrutinib -0.051 | [6] 0.026 | [7] 0.026 | [3] -0.107 | [10] 0.022 | Nexturastat A -0.227 | vemurafenib -0.034 | [11] 0.089 | [5] -0.083 | barasertib 0.066

ALDH7A1 (UniProt P49419)
inactive: [7] 0.166 | [9] -0.104 | Nexturastat A 0.037 | [5] 0.297

ALDH1L1 isoform 3 (UniProt O75891)
inactive: [9] 0.01

ALOX5 (UniProt P09917)
inactive: [8] 0.056

ALOX12B (UniProt O75342)
inactive: ibrutinib -0.036 | [6] -0.318 | ralimetinib -0.008 | [2] -0.439 | [8] 0.715 | [9] 0.011 | [4] 0.221 | [10] 0.268 | vemurafenib 0.489 | [11] -0.048 | [5] 0.181 | barasertib -0.17

Pulled one by one from the entries so far (2):
ALDH7A1 (UniProt P49419)
inactive: [7] 0.166 | [9] -0.104 | Nexturastat A 0.037 | [5] 0.297

ALDH1L1 isoform 3 (UniProt O75891)
inactive: [9] 0.01

Going on with the list:

AMBRA1 isoform 5 (UniProt Q9C0C7)
inactive: ibrutinib -0.307 | [6] -0.131 | [7] -0.085 | [8] -0.285 | Nexturastat A 0.109 | vemurafenib -0.034 | [5] 0.054 | barasertib 0.017

AFMID isoform 2 (UniProt Q63HM1)
inactive: vemurafenib 0.048 | [5] -0.115

AFF4 (UniProt Q9UHB7)
inactive: ibrutinib -0.032 | [6] -0.273 | [7] -0.002 | [1] -0.207 | [9] 0.091 | Nexturastat A 0.29 | [5] 0 | givinostat 0.199 | barasertib -0.11

AKNA (UniProt Q7Z591)
active: [1] -0.659
inactive: [9] 0.079 | [10] -0.047 | [11] -0.02 | givinostat 0.177

ADCY7 (UniProt P51828)
inactive: [6] -0.037 | ralimetinib -0.034 | [7] -0.076 | [2] 0.075 | [3] -0.254 | [4] 0.079 | Nexturastat A 0.07

ALMS1 (UniProt Q8TCU4)
inactive: ibrutinib -0.03 | [1] -0.707 | [3] -0.016 | givinostat 0.036 | barasertib 0.086

AKR1C1 (UniProt Q04828)
inactive: [5] -0.084

AGTRAP isoform 2 (UniProt Q6RW13)
inactive: [1] -0.023 | [8] 0.112 | givinostat -0.081

ALAS1 (UniProt P13196)
inactive: ibrutinib 0.155 | [6] -0.002 | [7] -0.107 | [1] -0.038 | [9] 0.145 | [10] 0.016 | Nexturastat A 0.009 | [11] 0.005 | [5] 0.041 | givinostat 0.088 | barasertib -0.02

ADPRM (UniProt Q3LIE5)
inactive: ibrutinib -0.014 | [1] 0.075 | [9] 0.075 | givinostat 0.049 | barasertib 0.012

ANAPC11 (UniProt Q9NYG5)
inactive: ibrutinib 0.025 | [1] -0.117 | vemurafenib -0.009 | givinostat 0.211 | barasertib 0.007

AIG1 (UniProt Q9NVV5)
inactive: [6] -0.273 | [8] 0.214

ALKBH7 (UniProt Q9BT30)
inactive: ralimetinib 0.145 | [2] -0.003 | [4] 0.036

ALS2 (UniProt Q96Q42)
inactive: ralimetinib 0.034 | [7] -0.308 | [1] 0.025 | [2] -0.013 | [8] 0.001 | [4] 0.237 | [10] 0.009 | Nexturastat A 0.022 | [11] -0.057 | givinostat 0.027

AMZ2 (UniProt Q86W34)
inactive: ralimetinib 0.223 | [7] 0.006 | [2] 0.004 | [9] -0.025 | [4] 0.08 | [10] 0.048 | Nexturastat A 0.143 | [11] -0.034 | [5] -0.004

AKR1D1 (UniProt P51857)
inactive: ibrutinib 0.094 | [6] 0.082 | [8] -0.209 | [10] 0.023 | vemurafenib -0.018 | [11] -0.034 | barasertib -0.082

ADIPOR2 (UniProt Q86V24)
inactive: ibrutinib -0.018 | [6] -0.024 | [1] -0.074 | [8] -0.057 | [10] 0.013 | vemurafenib 0.026 | [11] -0.1 | givinostat 0.037 | barasertib -0.103

ANAPC13 (UniProt Q9BS18)
inactive: [7] 0.168 | Nexturastat A -0.038

ADD2 isoform 9 (UniProt P35612)
inactive: ibrutinib -0.098 | ralimetinib 0.145 | [2] -0.103 | [9] 0.191 | [4] 0.065 | [10] -0.067 | [11] -0.114 | [5] 0.079 | barasertib 0.047

AMMECR1 (UniProt Q9Y4X0)
inactive: [6] -0.009 | ralimetinib 0.187 | [7] -0.028 | [1] -0.175 | [2] 0.043 | [4] -0.129 | Nexturastat A 0.183 | vemurafenib 0.117 | givinostat 0.21
